These results are taken from publication PMC12785453, “Oral Fluid Concentrations and Pharmacological Effects of Clephedrone and Methylone in Humans” (International Journal of Molecular Sciences, 2025).

SMILES strings stand for the structures.

Series [1] relates to healthy volunteers. The experiment in a line: Subjective effects, visual analog scales (VAS), clephedrone study. It is filed as in vivo, humans. Particulars: time points vs baseline; 100 or 150 mg oral, n=8. The source says: (§1) The study evaluating the acute effects of clephedrone was designed as a non-controlled, prospective, observational, and naturalistic study. The procedures and evaluations included in this study have been described in previous studies evaluating other synthetic cathinones (mephedrone, methylone, alpha-PVP, NEP, HEXEN), phenethylamines (2C-B and 2C-E), or synthetic cannabinoids (JWH-122, JWH-210, UR-144).
(§2) This study consisted of one experimental session in which participants (N = 8; 6 women, 2 men) selected their oral dose of clephedrone based on their drug use experience and preferences. According to their dose selection, 3 women and 1 man ingested 100 mg of clephedrone, while the remaining 3 women and 1 man opted for a higher dose of 150 mg. […] Participants were recruited by word of mouth by the harm reduction organization Energy Control in Barcelona (Associació Benestar i Desenvolupament, ABD).
(§3) Subjective effects were evaluated with visual analog scales (VAS), the short form of the Addiction Research Center Inventory (ARCI), and the Evaluation of Subjective Effects of Substances with Abuse Potential questionnaire (VESSPA-SSE). In addition, the Sensitivity to Drug Reinforcement Questionnaire (SDRQ) and a pharmacological identification class questionnaire were used in the controlled study administering methylone. […]

Series [2] relates to healthy volunteers. The series is described as follows: Subjective effects, VESSPA-SSE, clephedrone study. It is filed as in vivo, humans. Particulars: time points vs baseline; 100 or 150 mg oral, n=8.
Source text: as §1, §2, §3

For `CNC(C)C(=O)c1ccc(Cl)cc1` (centres unmarked) [Clephedrone, 4-chloromethcathinone], the “VAS I want to be with other people Dunnett’s Test” value in the series on healthy volunteers [1] is “h (“h” p < 0.05, “H” (times 0–4 h))”. Moreover, the “VESSPA S Dunnett’s Test” value with healthy volunteers [2] is “i (“i” p < 0.05, “I” (times 0–5 h))”.
